From patent publication US20040171551A1
No constants are given. Whether binding was seen depends on the method and setting. For some assays here: Binding seen in cells or lysates may run through a third protein. Some entries that bind do so weakly or less than the wild type. Where a sequence is shown, tags or fusion partners need not be part of it.

Chains of the proteins cited; added tags and fusions are not shown. Lines headed by an entry give the natural chain unless they say otherwise; changes in a name come on top.
UniProt P0A7C2: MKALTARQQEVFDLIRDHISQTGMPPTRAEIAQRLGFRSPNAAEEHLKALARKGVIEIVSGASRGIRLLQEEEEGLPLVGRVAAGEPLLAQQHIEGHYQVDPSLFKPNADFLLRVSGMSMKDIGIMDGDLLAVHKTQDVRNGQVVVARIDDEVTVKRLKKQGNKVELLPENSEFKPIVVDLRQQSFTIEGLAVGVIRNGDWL

Tests used:
[1] = molecular target: T1, hLAG-3/EP fused to the LexA DNA binding domain (pLex-hLAG-3/EP, E478 to L503) (human) (UniProt P0A7C2+P18627); assay: yeast two-hybrid
[2] = molecular target: EP-rich C-terminal region of the PDGF receptor (PDGFR) fused with the LexA BD (human) (UniProt P0A7C2+P09619); assay: yeast two-hybrid, PDGFR C-terminal region fused with the LexA BD
[3] = molecular target: T2, NLS-hLAG-3/I fused to the LexA DNA binding domain (pLex/NLS-hLAG-3/I, R457 to L503) (human) (UniProt P0A7C2+P18627); assay: yeast two-hybrid (HIS3 growth and beta-galactosidase), LexA BD bait and GAL4 AD prey
[4] = molecular target: NLS/hLAG-3/EP fused to the LexA DNA binding domain (pLex/NLS-hLAG-3/EP, E478 to L503) (human) (UniProt P0A7C2+P18627); assay: as above
[5] = molecular target: T1, hLAG-3/EP fused to the LexA DNA binding domain (pLex-hLAG-3/EP, E478 to L503) (human); assay: as above
[6] = molecular target: hLAG-3/I fused to the LexA DNA binding domain (pLex-hLAG-3/I, R457 to L503) (human) (UniProt P0A7C2+P18627); assay: as above
[7] = molecular target: T2, NLS-hLAG-3/I fused to the LexA DNA binding domain (pLex/NLS-hLAG-3/I, R457 to L503) (human); assay: yeast two-hybrid, mating of AMR70 (clone plasmid) with L40 carrying pLex/NLS-hLAG-3/I
[8] = molecular target: T3, in vitro-translated hLAG-3 protein (T7-coupled rabbit reticulocyte lysate) (human) (UniProt P18627); assay: GST pull-down of in vitro-translated hLAG-3
T3 sequence (looked up): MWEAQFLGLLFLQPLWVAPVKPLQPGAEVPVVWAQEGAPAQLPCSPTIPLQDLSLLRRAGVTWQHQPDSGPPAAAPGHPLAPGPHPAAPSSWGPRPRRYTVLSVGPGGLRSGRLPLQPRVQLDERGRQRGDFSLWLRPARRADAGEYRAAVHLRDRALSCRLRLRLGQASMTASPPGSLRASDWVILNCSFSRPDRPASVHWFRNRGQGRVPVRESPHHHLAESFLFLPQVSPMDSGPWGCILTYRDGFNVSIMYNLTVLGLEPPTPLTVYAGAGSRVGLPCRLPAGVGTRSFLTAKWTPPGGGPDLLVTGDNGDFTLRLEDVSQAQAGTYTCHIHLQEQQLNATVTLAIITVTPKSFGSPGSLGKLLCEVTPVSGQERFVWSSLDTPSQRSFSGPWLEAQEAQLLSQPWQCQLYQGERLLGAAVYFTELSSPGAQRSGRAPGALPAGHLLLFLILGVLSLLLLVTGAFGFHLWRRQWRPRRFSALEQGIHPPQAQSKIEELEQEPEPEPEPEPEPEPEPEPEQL

[9] = molecular target: T4, natural hLAG-3 (70 kDa) protein present in whole cell lysate of PHA-activated human PBMCs (human) (UniProt P18627); assay: GST pull-down from lysate of activated T cells
T4 sequence (looked up): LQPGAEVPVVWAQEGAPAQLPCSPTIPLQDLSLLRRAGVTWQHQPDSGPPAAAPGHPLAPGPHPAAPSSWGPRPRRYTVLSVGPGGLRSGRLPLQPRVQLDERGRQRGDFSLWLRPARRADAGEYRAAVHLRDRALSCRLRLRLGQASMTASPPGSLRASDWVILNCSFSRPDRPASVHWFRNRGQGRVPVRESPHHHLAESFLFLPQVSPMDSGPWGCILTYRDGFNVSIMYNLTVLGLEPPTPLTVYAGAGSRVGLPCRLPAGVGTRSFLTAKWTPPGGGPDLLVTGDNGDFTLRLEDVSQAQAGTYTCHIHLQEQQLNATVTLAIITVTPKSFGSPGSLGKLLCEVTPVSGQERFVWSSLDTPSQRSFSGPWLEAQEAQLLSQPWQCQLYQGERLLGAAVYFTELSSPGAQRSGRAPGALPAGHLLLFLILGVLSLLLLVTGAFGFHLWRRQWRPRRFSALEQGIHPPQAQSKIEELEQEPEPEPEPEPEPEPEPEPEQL

[10] = molecular target: T4, natural hLAG-3 (70 kDa) protein present in whole cell lysate of PHA-activated human PBMCs (human); assay: GST pull-down from lysate of activated T lymphocytes
[11] = molecular target: T3, in vitro-translated hLAG-3 protein (T7-coupled rabbit reticulocyte lysate) (human); assay: GST pull-down of in vitro-translated hLAG-3 (FIG. 1B)
[12] = molecular target: T3, in vitro-translated hLAG-3 protein (T7-coupled rabbit reticulocyte lysate) (human); assay: GST pull-down of in vitro-translated hLAG-3, Western blot
[13] = molecular target: T4, natural hLAG-3 (70 kDa) protein present in whole cell lysate of PHA-activated human PBMCs (human); assay: GST pull-down from whole cell lysate, Western blot (FIG. 1A)
[14] = molecular target: T4, natural hLAG-3 (70 kDa) protein present in whole cell lysate of PHA-activated human PBMCs (human); assay: GST pull-down from lysate of PHA-activated T lymphocytes, Western blot

Measured: binding

B1: LAP (LAG-3-associated protein) fused to the GAL4 activation domain (pGAD-LAP) (protein, not shown: large carriers)
chain: YLPMQGNPPRRSKSAPPRDLGNLDKGQAASPREPLEPLNFPDPEYKEEEEDQDIQGEISHPDGKVEKVYKNGCRVILFPNGTRKEVSADGKTITVTFFNGDVKQVMPDQRVIYYYAAAQTTHTTYPEGLEVLHFSSGQIEKHYPDGRKEITFPDQTVKNLFPDGQEESIFPDGTIVRVQRDGNKLIEFNNGQRELHTAQFKRREYPDGTVKTVYANGHQETKYRSGRIRVKDKEGNVLMDTEL
binds: [1] | [2] | [3] | [4] | [5] | [6] | [7]

B2: GST-LAP fusion protein (LAP linked to glutathione S-transferase), on glutathione-Sepharose beads (protein, not shown: a dimerising Fc or GST)
chain: YLPMQGNPPRRSKSAPPRDLGNLDKGQAASPREPLEPLNFPDPEYKEEEEDQDIQGEISHPDGKVEKVYKNGCRVILFPNGTRKEVSADGKTITVTFFNGDVKQVMPDQRVIYYYAAAQTTHTTYPEGLEVLHFSSGQIEKHYPDGRKEITFPDQTVKNLFPDGQEESIFPDGTIVRVQRDGNKLIEFNNGQRELHTAQFKRREYPDGTVKTVYANGHQETKYRSGRIRVKDKEGNVLMDTEL
binds: [8] | [9] | [10] | [11] | [12] | [13] | [14]
